# Reference: patent US20210113586A1, “NEW USE AND METHODS OF MODULATING IMMUNE RESPONSES” (DIAMYD MEDICAL AB, priority 2018, published 2021)
# Key:
# [1] = tested on: PBMCs from ND individuals; settings: Example 2, FIG. 3a; MTT assay
# Experimental: (§1) Peripheral Blood Mononuclear cells (PBMCs) are isolated from blood from donors diagnosed with Type-1 diabetes and healthy controls. Alternatively, CD4-positive cells (T-cells) are further isolated from PBMCs by e.g. MACS beads, FACS or similar technology. […] A reasonable replication, such as 3 cultures of each condition, is performed. A normalized proliferation value for each culture is then calculated by a standard proliferation measurement method, such as by CFSE staining or radioactive thymidine incorporation (requiring additional factors be added during culture) or by staining for proliferation markers.
# (§2) In the FIG. 1, the proliferation of cells retrieved from 13 T1D subjects and 15 healthy controls were inspected. […] A normalized proliferation index was calculated for each culture.
# (§3) The proliferation of freshly isolated human PBMCs or CD4^+ T cells was evaluated with MTT (3-(4,5-Dimethylthiazol-2-yl)-2,5-Diphenyltetrazolium Bromide) assay (Ring et al., 2012). Cells were suspended in complete medium (RPMI 1640 supplemented with 2 mM glutamine, 25 mM HEPES, 10% heat inactivated fetal bovine serum, 100 U/ml penicillin, 10 mg/ml streptomycin, 5 mM R-mercaptoethanol) in a concentration 1 million cells per milliliter. […] The formazan crystal pellet was dissolved in DMSO and the plate was read within 10 min using a Multiskan MS plate reader (Labsystems) at 550 nm. […]
# [2] = tested on: PBMCs from T1D individuals; experiment: Proliferation of anti-CD3 stimulated PBMCs from T1D donors; assay type: cell-based, human
# Experimental: as §1, §2, §3
# [3] = tested on: responder CD4+ T cells; experiment: Multiplex PEA of cytokines released into culture medium by responder CD4+ T cells; assay type: cell-based, human
# Experimental: as §3, with “milliliter. The assay was performed in 96-well plates in duplicates or triplicates, where each well was pre-coated with 3 μg/ml anti-CD3 antibody for 3-5 h at 37° C. Each well was loaded with 100,000 cells. Drugs were added to the wells at the relevant concentrations.” for “milliliter.”
# (§4) Plasma samples, and culture media samples that were collected from plate wells at the end of the proliferation assay, were analyzed by multiplex PEA with an Olink Inflammation […] panel, targeting 92 proteins related to inflammation (Olink Proteomics, Uppsala, Sweden) as previously described (Edvinsson et al., 2017, Assarsson et al., 2014, Larsson et al., 2015, Larssen et al., 2017). […] The newly formed DNA molecule is then amplified and quantified using a microfluidic real-time qPCR, BioMark™ HD (Fluidigm, South San Francisco, Calif., USA). […]
# [4] = tested on: responder CD4+ T cells; experiment: Proliferation of anti-CD3 stimulated GABA responder CD4+ T cells from ND individuals; assay type: cell-based, human
# Experimental: as §1, §2, §3
# [5] = tested on: PBMCs from nondiabetic (ND) individuals; settings: GABA 100 nM; n=7; FIG. 4b
# Experimental: as §3, with “milliliter. The assay was performed in 96-well plates in duplicates or triplicates, where each well was pre-coated with 3 μg/ml anti-CD3 antibody for 3-5 h at 37° C. Each well was loaded with 100,000 cells. Drugs were added to the wells at the relevant concentrations.” for “milliliter.”
# as §4
# [6] = tested on: PBMCs from type 1 diabetic (T1D) patients; settings: GABA 100 nM; n=13; FIG. 4c
# Experimental: as §3, with “milliliter. The assay was performed in 96-well plates in duplicates or triplicates, where each well was pre-coated with 3 μg/ml anti-CD3 antibody for 3-5 h at 37° C. Each well was loaded with 100,000 cells. Drugs were added to the wells at the relevant concentrations.” for “milliliter.”
# as §4
structure (smiles),measurement,setting,value
"NCCCC(=O)O [GABA, gamma-aminobutyric acid]",inhibition of proliferation by GABA,[1],did not inhibit proliferation
same,inhibition of cell proliferation,"[2]; GABA 1 μM, FIG. 3b",did not have any inhibitory effect
same,inhibition at 0.1 µM,"[2]; Homo sapiens, PBMC, read-out: inhibition of cell proliferation",~20%
same,number of further distinct cytokines specifically inhibited,[3]; 100 nM GABA only,12 cytokines
same,number of cytokines inhibited by both concentrations,"[3]; both 100 and 500 nM GABA, FIG. 6b",15 cytokines
same,inhibition of proliferation,"[4]; 1 μM GABA, FIG. 3d",no inhibition
same,inhibition at 0.5 µM,"[4]; Homo sapiens, CD4+ T, 72 h, read-out: maximum inhibition of proliferation",~40%
same,number of cytokines whose release was significantly inhibited,[5],16 cytokines
same,number of cytokines whose release was significantly inhibited,[6],47 cytokines
